Test results reported in the supplement of paper PMC10849652.
The list shows a part of the results.

Amino acid sequences for entries named in this document (tags omitted). A change or cut given only in a name is not applied to a line headed by its entry.
UniProt Q96CW6: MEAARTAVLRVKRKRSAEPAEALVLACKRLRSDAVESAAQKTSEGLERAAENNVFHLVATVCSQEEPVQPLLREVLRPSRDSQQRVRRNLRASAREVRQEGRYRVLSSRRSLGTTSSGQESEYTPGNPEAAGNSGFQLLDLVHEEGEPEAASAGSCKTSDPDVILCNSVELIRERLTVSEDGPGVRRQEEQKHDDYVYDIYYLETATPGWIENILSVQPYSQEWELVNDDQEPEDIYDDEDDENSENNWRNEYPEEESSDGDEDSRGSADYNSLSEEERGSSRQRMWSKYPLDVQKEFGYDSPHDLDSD
UniProt P62318, whole entry, looked up: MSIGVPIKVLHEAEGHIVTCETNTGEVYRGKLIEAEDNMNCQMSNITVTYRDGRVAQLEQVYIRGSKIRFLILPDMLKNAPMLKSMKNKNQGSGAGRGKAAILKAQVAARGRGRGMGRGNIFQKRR
UniProt Q9NXE4: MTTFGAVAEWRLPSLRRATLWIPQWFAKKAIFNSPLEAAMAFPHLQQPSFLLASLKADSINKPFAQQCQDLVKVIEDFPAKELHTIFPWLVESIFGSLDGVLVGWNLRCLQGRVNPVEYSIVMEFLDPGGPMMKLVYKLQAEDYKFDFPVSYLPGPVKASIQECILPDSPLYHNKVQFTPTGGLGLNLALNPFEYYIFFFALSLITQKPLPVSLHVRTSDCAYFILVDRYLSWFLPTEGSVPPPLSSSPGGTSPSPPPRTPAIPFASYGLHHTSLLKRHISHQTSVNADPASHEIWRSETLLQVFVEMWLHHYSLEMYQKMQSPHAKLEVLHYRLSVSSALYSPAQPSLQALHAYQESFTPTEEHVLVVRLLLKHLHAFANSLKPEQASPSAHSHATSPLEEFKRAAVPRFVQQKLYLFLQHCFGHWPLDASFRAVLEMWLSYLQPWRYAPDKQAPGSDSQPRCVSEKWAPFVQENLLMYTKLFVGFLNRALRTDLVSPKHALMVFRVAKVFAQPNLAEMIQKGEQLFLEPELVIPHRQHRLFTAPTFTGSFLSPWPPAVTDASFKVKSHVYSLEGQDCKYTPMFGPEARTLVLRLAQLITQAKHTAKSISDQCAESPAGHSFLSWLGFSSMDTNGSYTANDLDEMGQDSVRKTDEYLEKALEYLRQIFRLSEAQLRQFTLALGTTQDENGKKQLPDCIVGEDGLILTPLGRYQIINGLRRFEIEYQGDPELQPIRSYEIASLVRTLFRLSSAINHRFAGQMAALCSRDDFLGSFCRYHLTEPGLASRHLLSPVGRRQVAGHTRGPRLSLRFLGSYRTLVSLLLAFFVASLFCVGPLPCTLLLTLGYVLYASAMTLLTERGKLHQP
UniProt Q9Y5X2: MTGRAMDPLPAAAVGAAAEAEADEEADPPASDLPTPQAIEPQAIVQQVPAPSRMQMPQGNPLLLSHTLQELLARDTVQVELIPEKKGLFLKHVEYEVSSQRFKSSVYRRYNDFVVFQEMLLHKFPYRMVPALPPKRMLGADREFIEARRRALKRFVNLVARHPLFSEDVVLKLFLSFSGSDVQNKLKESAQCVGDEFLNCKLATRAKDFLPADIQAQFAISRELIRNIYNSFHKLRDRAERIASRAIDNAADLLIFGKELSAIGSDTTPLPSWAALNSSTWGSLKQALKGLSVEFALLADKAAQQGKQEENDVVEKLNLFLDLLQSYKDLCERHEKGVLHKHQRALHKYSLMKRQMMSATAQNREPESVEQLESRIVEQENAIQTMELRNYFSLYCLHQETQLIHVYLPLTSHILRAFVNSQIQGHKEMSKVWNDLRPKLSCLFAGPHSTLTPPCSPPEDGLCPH
UniProt O95721: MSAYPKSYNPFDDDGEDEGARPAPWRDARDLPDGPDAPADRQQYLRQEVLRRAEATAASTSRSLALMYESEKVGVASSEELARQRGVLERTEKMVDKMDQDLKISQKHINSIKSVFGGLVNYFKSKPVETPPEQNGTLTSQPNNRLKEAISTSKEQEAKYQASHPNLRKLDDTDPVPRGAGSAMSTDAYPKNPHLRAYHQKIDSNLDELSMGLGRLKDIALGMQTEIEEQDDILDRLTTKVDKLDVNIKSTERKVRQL
UniProt P62304, whole entry, looked up: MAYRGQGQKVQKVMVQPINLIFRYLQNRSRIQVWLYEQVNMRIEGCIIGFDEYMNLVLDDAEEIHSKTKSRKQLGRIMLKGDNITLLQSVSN
UniProt Q13573: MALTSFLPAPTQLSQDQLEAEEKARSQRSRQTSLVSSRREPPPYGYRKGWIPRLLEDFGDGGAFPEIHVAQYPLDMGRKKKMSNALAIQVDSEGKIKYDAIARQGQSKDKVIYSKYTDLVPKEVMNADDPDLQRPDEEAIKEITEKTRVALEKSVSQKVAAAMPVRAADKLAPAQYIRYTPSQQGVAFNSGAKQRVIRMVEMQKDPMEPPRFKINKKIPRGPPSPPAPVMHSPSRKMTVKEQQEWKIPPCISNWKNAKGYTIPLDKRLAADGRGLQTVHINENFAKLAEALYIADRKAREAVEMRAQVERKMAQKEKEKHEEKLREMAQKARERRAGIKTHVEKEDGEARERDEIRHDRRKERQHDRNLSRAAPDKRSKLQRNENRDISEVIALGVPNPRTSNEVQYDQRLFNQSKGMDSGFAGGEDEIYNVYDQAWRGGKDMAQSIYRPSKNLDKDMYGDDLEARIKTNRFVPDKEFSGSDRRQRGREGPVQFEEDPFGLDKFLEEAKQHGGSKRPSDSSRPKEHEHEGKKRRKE
UniProt Q14683: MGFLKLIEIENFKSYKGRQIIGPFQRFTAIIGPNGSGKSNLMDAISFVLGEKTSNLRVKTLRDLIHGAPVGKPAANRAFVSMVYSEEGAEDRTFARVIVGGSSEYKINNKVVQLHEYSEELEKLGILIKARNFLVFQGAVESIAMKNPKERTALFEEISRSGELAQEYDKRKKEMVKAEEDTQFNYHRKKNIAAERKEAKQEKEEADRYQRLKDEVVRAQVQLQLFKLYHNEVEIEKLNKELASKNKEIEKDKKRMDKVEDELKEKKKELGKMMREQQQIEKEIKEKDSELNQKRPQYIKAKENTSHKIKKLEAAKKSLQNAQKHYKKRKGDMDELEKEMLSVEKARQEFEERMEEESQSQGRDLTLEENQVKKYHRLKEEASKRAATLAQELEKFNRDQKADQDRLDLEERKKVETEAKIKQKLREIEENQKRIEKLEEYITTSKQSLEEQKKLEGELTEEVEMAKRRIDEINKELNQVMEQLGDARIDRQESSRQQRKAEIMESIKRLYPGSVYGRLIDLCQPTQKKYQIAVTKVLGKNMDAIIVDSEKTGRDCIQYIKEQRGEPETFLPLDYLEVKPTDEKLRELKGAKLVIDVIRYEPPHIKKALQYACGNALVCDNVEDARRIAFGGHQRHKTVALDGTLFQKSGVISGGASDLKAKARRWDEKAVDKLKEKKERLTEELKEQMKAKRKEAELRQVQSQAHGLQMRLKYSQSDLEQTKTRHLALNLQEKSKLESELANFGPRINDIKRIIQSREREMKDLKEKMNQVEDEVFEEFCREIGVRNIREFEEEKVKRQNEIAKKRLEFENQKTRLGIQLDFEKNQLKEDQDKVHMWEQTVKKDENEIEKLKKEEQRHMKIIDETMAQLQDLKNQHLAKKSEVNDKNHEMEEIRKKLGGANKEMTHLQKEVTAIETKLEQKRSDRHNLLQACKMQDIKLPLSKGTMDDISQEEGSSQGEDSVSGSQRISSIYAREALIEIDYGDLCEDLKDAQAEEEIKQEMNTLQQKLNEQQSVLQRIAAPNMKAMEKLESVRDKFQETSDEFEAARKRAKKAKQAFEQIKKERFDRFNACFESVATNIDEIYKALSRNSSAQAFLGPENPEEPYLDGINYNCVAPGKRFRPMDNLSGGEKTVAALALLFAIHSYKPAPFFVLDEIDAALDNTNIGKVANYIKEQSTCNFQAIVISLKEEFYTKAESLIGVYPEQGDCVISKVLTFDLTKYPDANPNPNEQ
UniProt Q15796, whole entry, looked up: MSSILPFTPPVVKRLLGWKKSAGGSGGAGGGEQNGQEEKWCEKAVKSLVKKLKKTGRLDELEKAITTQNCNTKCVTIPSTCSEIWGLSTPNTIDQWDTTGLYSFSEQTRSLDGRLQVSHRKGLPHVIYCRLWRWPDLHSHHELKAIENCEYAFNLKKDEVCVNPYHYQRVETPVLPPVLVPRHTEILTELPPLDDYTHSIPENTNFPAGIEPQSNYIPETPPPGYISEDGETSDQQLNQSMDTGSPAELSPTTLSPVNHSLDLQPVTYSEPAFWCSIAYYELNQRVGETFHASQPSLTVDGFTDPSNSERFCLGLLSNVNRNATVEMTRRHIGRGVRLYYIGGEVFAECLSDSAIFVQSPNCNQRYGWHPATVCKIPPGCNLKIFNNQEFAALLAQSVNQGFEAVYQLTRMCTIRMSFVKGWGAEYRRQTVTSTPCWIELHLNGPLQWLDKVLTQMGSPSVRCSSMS
UniProt O14508, whole entry, looked up: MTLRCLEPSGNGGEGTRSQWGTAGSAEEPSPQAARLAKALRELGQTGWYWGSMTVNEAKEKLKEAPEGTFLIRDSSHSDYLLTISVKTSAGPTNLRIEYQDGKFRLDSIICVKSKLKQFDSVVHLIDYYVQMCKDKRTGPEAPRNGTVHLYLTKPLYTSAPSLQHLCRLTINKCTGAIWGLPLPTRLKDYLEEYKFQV
UniProt Q00796: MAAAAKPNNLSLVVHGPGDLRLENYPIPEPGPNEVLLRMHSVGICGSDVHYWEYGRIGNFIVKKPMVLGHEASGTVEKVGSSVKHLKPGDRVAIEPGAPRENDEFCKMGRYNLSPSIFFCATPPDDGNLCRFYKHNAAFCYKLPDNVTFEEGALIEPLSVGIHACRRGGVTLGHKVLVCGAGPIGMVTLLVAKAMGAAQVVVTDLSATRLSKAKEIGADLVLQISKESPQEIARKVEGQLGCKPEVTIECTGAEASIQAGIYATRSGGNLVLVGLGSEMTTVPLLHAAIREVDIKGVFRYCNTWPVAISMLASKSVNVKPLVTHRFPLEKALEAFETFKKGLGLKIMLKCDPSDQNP
UniProt O15198: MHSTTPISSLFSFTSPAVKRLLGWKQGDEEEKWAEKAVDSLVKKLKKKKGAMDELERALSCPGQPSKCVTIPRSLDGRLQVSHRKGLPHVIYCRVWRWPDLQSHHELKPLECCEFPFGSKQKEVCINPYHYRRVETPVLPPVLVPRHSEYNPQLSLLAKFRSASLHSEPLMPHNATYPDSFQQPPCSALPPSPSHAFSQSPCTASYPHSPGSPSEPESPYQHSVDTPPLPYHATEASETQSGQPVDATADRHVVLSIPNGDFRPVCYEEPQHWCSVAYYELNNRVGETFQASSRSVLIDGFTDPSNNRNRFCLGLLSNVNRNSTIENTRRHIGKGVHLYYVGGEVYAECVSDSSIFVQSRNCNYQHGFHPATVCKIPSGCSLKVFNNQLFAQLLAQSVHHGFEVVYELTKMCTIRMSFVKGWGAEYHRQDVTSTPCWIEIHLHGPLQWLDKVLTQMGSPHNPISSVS
UniProt Q9Y2E8: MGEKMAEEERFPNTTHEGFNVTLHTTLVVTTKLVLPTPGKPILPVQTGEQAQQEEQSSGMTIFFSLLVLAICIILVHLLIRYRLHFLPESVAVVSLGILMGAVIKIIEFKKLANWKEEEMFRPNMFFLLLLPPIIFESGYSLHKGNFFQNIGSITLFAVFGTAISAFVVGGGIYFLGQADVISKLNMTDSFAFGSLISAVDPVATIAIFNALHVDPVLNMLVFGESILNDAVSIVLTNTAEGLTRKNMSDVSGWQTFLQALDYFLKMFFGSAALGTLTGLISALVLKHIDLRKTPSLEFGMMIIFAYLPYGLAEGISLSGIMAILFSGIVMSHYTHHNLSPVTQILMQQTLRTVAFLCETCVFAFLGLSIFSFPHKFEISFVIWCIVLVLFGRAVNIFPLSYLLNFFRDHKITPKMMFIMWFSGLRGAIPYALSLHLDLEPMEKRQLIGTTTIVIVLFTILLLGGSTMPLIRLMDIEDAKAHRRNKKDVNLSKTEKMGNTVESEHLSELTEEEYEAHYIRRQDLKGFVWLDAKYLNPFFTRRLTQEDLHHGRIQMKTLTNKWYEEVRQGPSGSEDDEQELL
UniProt O95295: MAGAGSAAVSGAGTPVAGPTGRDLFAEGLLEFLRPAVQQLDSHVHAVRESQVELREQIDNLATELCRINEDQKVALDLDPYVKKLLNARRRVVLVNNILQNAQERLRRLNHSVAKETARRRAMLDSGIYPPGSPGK
UniProt Q7Z3B0: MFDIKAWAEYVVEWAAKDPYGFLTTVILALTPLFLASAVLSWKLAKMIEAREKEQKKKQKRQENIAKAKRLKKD
UniProt Q8WVI0: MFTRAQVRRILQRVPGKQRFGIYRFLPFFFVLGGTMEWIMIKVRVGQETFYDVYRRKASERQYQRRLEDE
UniProt Q9NRS6: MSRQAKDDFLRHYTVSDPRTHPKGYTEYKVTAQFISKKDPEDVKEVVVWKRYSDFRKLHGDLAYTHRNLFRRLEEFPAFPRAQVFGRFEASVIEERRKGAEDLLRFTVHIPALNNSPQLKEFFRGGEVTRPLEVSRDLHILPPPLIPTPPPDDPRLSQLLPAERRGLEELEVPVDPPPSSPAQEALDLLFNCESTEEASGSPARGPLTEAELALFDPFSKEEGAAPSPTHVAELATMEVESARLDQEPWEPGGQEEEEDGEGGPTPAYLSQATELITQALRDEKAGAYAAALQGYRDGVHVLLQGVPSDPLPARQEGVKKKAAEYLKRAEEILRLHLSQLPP

Columns and labels:
Assay in all cases: log2 fold change, soluble protein after heating vs DMSO (PISA); higher = thermal stabilisation; K562 cells, 10 uM, 30 min; active = over 0.2 and 3.5 SD of the protein, either way, in both replicates (recomputed)
[1] = compound: C1=CC=C(C=C1)[C@H](COC2=CC3=C(C=C2)NC(=O)N3)NC(=O)C4=CC=CN(C4=O)CC5=CC(=C(C=C5)F)F
How it was run: (§1)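 K562 cells at 2×10^6 cells/mL were treated for 30 min with 10 μM compound, and aliquots were heated for 3 min over 48°C-58°C before pooling. Extraction used PBS with 0.5% NP-40 at 4°C, and soluble protein was the supernatant after 21,000xg for 90 min, measured by TMTpro 16plex LC-MS/MS with channel sums equalised. Thermal stability values, relative to control samples and from duplicates, are log2 fold changes.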

[2] = compound: CC1=C(SC2=C1C(=N[C@H](C3=NN=C(N32)C)CC(=O)N)C4=CC=C(C=C4)Cl)C
How it was run: as §1

[3] = compound: CC1=C2C(=CC=C1)N=C(N(C2=O)C3=CC=CC=C3C)CN4C=NC5=C(N=CN=C54)N
How it was run: as §1

[4] = compound: Cc1sc2c(c1C)C(c1ccc(Cl)cc1)=N[C@@H](CC(=O)OC(C)(C)C)c1nnc(C)n1-2
How it was run: as §1

[5] = compound: c1ccc([C@@H]2C[C@H]2NC2CCNCC2)cc1
How it was run: as §1

Measured: log2 fold change

SLC7A6OS (UniProt Q96CW6)
inactive: [1] -0.026 | [2] -0.043 | [3] 0.03 | [4] 0.012 | [5] 0.032

SNRPD3 (UniProt P62318)
inactive: [1] 0.035 | [2] -0.029 | [3] 0 | [4] 0.106 | [5] 0.036

SMPD4 isoform 2 (UniProt Q9NXE4)
inactive: [1] -0.25 | [2] -0.029 | [3] -0.048 | [4] -0.061 | [5] -0.097

SNX17 (UniProt Q15036)
inactive: [1] -0.072 | [2] -0.025 | [3] 0.117 | [4] 0.239 | [5] 0.119

SNX8 (UniProt Q9Y5X2)
inactive: [1] 0.009 | [2] 0.041 | [3] 0.008 | [4] -0.021 | [5] 0.066

SNAP29 (UniProt O95721)
inactive: [1] -0.004 | [2] 0.007 | [3] 0.029 | [4] 0.003 | [5] 0.015

SNRPE (UniProt P62304)
inactive: [1] 0.011 | [2] 0.027 | [3] 0.031 | [4] 0.007 | [5] 0.064

SNU13, A0A3B3IUA2
inactive: [1] -0.092 | [2] 0.063 | [3] 0.159 | [4] 0.107 | [5] 0.044

SNW1 (UniProt Q13573)
inactive: [1] 0.03 | [2] 0.015 | [3] -0.036 | [4] 0.055 | [5] -0.035

SMC1A (UniProt Q14683)
inactive: [1] 0.002 | [2] 0.02 | [3] 0.05 | [4] -0.017 | [5] 0.001

SMAD2 (UniProt Q15796)
inactive: [1] -0.014 | [2] 0.022 | [3] 0.056 | [4] -0.02 | [5] -0.066

SOCS2 (UniProt O14508)
inactive: [1] -0.043 | [2] -0.042 | [3] 0.062 | [4] 0.037 | [5] 0.071

SORD (UniProt Q00796)
inactive: [1] 0.02 | [2] 0.033 | [3] 0.045 | [4] -0.014 | [5] 0.05

SMAD9 (UniProt O15198)
inactive: [1] -0.104 | [2] 0.094 | [3] -0.001 | [4] 0.076 | [5] -0.054

Four successive records from above:
SNX8 (UniProt Q9Y5X2)
inactive: [1] 0.009 | [2] 0.041 | [3] 0.008 | [4] -0.021 | [5] 0.066

SNAP29 (UniProt O95721)
inactive: [1] -0.004 | [2] 0.007 | [3] 0.029 | [4] 0.003 | [5] 0.015

SNRPE (UniProt P62304)
inactive: [1] 0.011 | [2] 0.027 | [3] 0.031 | [4] 0.007 | [5] 0.064

SNU13, A0A3B3IUA2
inactive: [1] -0.092 | [2] 0.063 | [3] 0.159 | [4] 0.107 | [5] 0.044

The list continues:

SLC9A8 isoform 2 (UniProt Q9Y2E8)
inactive: [1] 0.01 | [2] -0.147 | [3] -0.008 | [4] 0.028 | [5] 0.185

SOX5 (UniProt P35711)
inactive: [1] -0.033 | [2] 0.005 | [3] -0.058 | [4] -0.018 | [5] -0.022

SMPD4 isoform 4 (UniProt Q9NXE4)
inactive: [1] -0.094 | [2] 0.031 | [3] 0.043 | [4] -0.034 | [5] -0.104

SNAPIN (UniProt O95295)
inactive: [1] -0.024 | [2] 0.094 | [3] -0.028 | [4] -0.044 | [5] -0.039

SP1 (UniProt P08047)
inactive: [1] 0.002 | [2] -0.029 | [3] 0.016 | [4] 0.051 | [5] 0.02

SNX5 (UniProt Q9Y5X3)
inactive: [1] -0.016 | [2] 0.045 | [3] 0.014 | [4] 0.04 | [5] -0.071

SMIM15 (UniProt Q7Z3B0)
inactive: [1] 0.115 | [2] 0.011 | [3] -0.105 | [4] -0.095 | [5] 0.017

SMIM4 (UniProt Q8WVI0)
inactive: [1] -0.061 | [2] -0.056 | [3] 0.023 | [4] -0.064 | [5] 0.198

SPAG5 (UniProt Q96R06)
inactive: [1] -0.099 | [2] -0.015 | [3] -0.001 | [4] 0.18 | [5] -0.083

SNX15 (UniProt Q9NRS6)
inactive: [1] 0.065 | [2] -0.032 | [3] 0.141 | [4] 0.279 | [5] -0.081
